The list does not hold the whole screen: it is rich in T/C values a quarter to a half above the control, in often repeated tests (any T/C) and in doses without a T/C. Other doses and runs of a compound stand elsewhere. T/C: endpoint of the treated group in % of that of the vehicle group. Some entries give survivors of the animals treated and no T/C: the source holds a T/C of zero for them, seemingly a mark for toxic or unscored doses. Some survivor counts are full or nearly so, which does not show that the dose was tolerated: survival well below the control is almost never listed, so the zero probably covers shortened survival too. Counts of survivors are from the toxicity check (mostly the fifth day) where no day follows; animals may have died later. Schedule codes are those of the source, taken here to give the interval after Q, in days (D) or hours (H), and the number of doses after X. Some schedules carry Z or #; the key to these is not given. Some entries hold several experiments; their values stand side by side, smallest first. For survival time, this PubChem deposit counts one and a half times the control or more as active, and values a quarter to a half above the control carry no call in these data; other NCI protocols may use other cut-offs. Some T/C values are followed by the survivors on the day toxicity was checked, most often the fifth; where none is given, no animal had died by that day.
Test system: L1210 leukemia ip in BDF1 mice, survival T/C
Test: NCI In Vivo Anticancer Drug Screen. Data for tumor model L1210 Leukemia (intraperitoneal) in B6D2F1 (BDF1) mice
Settings: T/C endpoint: mean survival time, higher T/C = longer survival
[1] = dose: 400.0 mg/kg/injection, schedule: Q01DX001 (ip), vehicle: saline
[2] = dose: 200.0 mg/kg/injection, schedule: Q01DX009 (ip), vehicle: saline
[3] = dose: 200.0 mg/kg/injection, schedule: Q04DX003 (ip), vehicle: saline
[4] = dose: 400.0 mg/kg/injection, schedule: Q04DX003 (ip), vehicle: saline
[5] = dose: 100.0 mg/kg/injection, schedule: Q04DX003 (ip), vehicle: saline
[6] = dose: 400.0 mg/kg/injection, schedule: Q01DX009 (ip), vehicle: saline with Tween-80
[7] = dose: 135.0 mg/kg/injection, schedule: Q01DX Z (ip), vehicle: saline

For `N#CC1(C#N)C2C=CC(C3CCC=C32)C1(C#N)C#N` (configuration not stated), the survivor count (dose: 100.0 mg/kg/injection, schedule: Q04DX003 (ip), vehicle: saline with Tween-80) was 5 of 6, the survivor count (dose: 200.0 mg/kg/injection, schedule: Q04DX003 (ip), vehicle: saline with Tween-80) was 6 of 6 and the survivor count (dose: 400.0 mg/kg/injection, schedule: Q04DX003 (ip), vehicle: saline with Tween-80) was 0 of 6.
With `CC1CN1C1=C(Br)C(=O)C(N2CC2C)=C(Br)C1=O` (configuration not stated) the survivor count (dose: 25.0 mg/kg/injection, schedule: Q01DX009 (ip), vehicle: Klucel (hydroxypropylcellulose) (HPC)) was 0 of 6 and the survivor count (dose: 50.0 mg/kg/injection, schedule: Q04DX003 (ip), vehicle: saline with Tween-80) was 0 of 6.
In the case of `Cc1c(/C=N/N=c2/[nH][nH]/c(=N/N=C/c3c(C)n(C)n(-c4ccccc4)c3=O)c3ccccc23)c(=O)n(-c2ccccc2)n1C`, the survivor count [1] was 1 of 4.
`O=C(CCN1CCCCCCC1)c1cccc([N+](=O)[O-])c1` was tested, and the survivor count [2] was 0 of 6, the survivor count [3] was 1 of 6 and the survivor count [4] was 0 of 6.
In the case of `C[N+](C)(C)N1C(=O)C2C3c4ccccc4C(C2C1=O)[n+]1ccccc13` (configuration not stated), the survivor count (dose: 37.5 mg/kg/injection, schedule: Q01DX001 (ip), vehicle: other) was 0 of 6, the survivor count (dose: 75.0 mg/kg/injection, schedule: Q01DX001 (ip), vehicle: other) was 3 of 6 and the survivor count (dose: 150.0 mg/kg/injection, schedule: Q01DX001 (ip), vehicle: other) was 0 of 6. For the same molecule, the survivor count (dose: 300.0 mg/kg/injection, schedule: Q01DX001 (ip), vehicle: other) was 0 of 6.
For `CCCNCCN`, the survivor count [2] was 4 of 6 and the survivor count [4] was 0 of 6.
For `Cc1ccc2cc(N(C)C)ccc2[n+]1C`, the survivor count (dose: 25.0 mg/kg/injection, schedule: Q04DX003 (ip), vehicle: saline) was 2 of 6, the survivor count (dose: 50.0 mg/kg/injection, schedule: Q04DX003 (ip), vehicle: saline) was 0 of 6 and the survivor count [5] was 0 of 6. The survivor count [3] was 0 of 6 and the survivor count [4] was 0 of 6.
`COc1ccc([N+](=O)[O-])cc1NS(=O)(=O)c1cccc([N+](=O)[O-])c1` was tested, and the survivor count [6] was 6 of 6.
`CC(C)(C)NC(=O)Nc1ccc(O)cc1` was tested, and the survivor count [6] was 2 of 3.
In the case of `Cc1cc(N)c2cc(NC(=O)CCCCCCCCC(=O)Nc3ccc4nc(C)cc(N)c4c3)ccc2n1`, the T/C (dose: 8.9 mg/kg/injection, schedule: Q01DX Z (ip), vehicle: carboxymethylcellulose (CMC)) was 128 % of control [5 of 6 alive], the T/C (dose: 30.0 mg/kg/injection, schedule: Q01DX Z (ip), vehicle: saline) was 130 % of control and the T/C [7] was 127 % of control. For the same molecule, the survivor count [7] was 6 of 6, the survivor count (dose: 202.0 mg/kg/injection, schedule: Q01DX Z (ip), vehicle: saline) was 2 of 6 and 4 of 6 and the survivor count (dose: 303.0 mg/kg/injection, schedule: Q01DX Z (ip), vehicle: saline) was 1 of 6 and 2 of 6. The survivor count [1] was 3 of 4.
For `Cc1ccccc1NC1=C(Cl)C(=O)c2ccccc2C1=O`, the survivor count [5] was 3 of 6, the survivor count (dose: 200.0 mg/kg/injection, schedule: Q01DX001 (ip), vehicle: saline) was 1 of 6 and the survivor count [1] was 2 of 6.
With `COc1ccc(/C=N/NC(=O)c2ccccc2OC)cc1` the T/C [2] was 125 % of control.
For `COc1cccc(Cc2c[nH]c(=S)[nH]c2=O)c1`, the survivor count (dose: 400.0 mg/kg/injection, schedule: Q01DX009 (ip), vehicle: Klucel (hydroxypropylcellulose) (HPC)) was 1 of 6.
For `C=C1CC[N+]2(CCCC)CCCC12` (configuration not stated), the survivor count (dose: 50.0 mg/kg/injection, schedule: Q01DX009 (ip), vehicle: Klucel (hydroxypropylcellulose) (HPC)) was 2 of 3, the survivor count (dose: 100.0 mg/kg/injection, schedule: Q01DX009 (ip), vehicle: Klucel (hydroxypropylcellulose) (HPC)) was 0 of 3 and the survivor count (dose: 200.0 mg/kg/injection, schedule: Q01DX009 (ip), vehicle: Klucel (hydroxypropylcellulose) (HPC)) was 0 of 3.
